Like-named read-outs stand apart in the source and are kept apart here. Results are given in words; binding and its absence hold for the method and conditions named. Binding seen in cells or lysates may run through a third protein. Some entries that bind do so weakly or less than the wild type. For some of these results: Sequences can lack the tags named with a protein.
Columns and labels:
[1] = target: GST-Nup153-N (N-terminal part of Nup153, residues 2-610, fused to GST) (human) (UniProt P49790); assay: pull-down
[2] = target: Nup153 (endogenous) (human (endogenous in HeLa)) (UniProt P49790); assay: proximity ligation
[3] = target: Nup153 (endogenous) (human (endogenous in HeLa)) (UniProt P49790); assay: proximity ligation; remark: listed apart in the source

Sequences of proteins named here, by UniProt entry; tags and fusion partners are left off. A change or cut given only in a name is not applied to a line headed by its entry. A line that says so, or that is headed by a name, gives the form on record, which may keep a tag or linker. Residues count along the entry.
UniProt P49790: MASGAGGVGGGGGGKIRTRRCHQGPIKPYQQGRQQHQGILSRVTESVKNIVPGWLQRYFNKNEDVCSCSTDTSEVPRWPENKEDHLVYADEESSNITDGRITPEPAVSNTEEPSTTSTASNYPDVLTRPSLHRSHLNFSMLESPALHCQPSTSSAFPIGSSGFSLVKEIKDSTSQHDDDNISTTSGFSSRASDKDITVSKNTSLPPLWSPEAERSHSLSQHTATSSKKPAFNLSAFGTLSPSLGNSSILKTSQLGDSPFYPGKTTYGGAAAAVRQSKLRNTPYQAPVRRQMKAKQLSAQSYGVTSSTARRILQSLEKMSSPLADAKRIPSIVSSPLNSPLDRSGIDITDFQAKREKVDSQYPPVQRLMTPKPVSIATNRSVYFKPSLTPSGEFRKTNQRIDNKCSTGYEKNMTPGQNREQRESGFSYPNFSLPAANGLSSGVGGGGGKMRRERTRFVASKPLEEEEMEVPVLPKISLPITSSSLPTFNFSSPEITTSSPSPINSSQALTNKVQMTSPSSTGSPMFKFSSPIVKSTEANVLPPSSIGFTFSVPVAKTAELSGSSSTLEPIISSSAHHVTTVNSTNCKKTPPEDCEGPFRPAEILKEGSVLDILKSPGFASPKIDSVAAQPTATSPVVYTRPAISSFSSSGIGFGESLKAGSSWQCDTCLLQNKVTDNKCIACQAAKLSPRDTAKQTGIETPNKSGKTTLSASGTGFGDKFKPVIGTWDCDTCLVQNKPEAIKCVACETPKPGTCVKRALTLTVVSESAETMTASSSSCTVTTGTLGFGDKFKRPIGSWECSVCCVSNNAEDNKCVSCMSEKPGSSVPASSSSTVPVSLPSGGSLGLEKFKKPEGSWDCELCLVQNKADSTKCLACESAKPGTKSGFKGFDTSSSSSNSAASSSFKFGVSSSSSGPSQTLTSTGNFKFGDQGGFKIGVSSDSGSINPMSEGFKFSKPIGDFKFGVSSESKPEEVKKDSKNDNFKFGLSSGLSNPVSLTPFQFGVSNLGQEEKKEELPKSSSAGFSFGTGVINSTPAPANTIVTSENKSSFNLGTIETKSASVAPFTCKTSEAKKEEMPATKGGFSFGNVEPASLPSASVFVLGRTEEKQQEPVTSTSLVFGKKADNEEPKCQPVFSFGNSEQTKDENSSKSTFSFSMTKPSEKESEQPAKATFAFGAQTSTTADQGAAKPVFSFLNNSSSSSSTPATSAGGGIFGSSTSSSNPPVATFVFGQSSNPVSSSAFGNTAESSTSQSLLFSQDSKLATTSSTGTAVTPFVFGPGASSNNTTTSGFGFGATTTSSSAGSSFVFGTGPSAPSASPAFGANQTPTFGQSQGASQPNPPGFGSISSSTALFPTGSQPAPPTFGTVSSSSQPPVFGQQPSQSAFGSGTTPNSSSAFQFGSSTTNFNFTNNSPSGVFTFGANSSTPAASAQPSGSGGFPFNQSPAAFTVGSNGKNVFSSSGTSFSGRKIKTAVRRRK
GST-Nup153-N (N-terminal part of Nup153, residues 2-610, fused to GST): residues 2-610 of P49790
UniProt O14777: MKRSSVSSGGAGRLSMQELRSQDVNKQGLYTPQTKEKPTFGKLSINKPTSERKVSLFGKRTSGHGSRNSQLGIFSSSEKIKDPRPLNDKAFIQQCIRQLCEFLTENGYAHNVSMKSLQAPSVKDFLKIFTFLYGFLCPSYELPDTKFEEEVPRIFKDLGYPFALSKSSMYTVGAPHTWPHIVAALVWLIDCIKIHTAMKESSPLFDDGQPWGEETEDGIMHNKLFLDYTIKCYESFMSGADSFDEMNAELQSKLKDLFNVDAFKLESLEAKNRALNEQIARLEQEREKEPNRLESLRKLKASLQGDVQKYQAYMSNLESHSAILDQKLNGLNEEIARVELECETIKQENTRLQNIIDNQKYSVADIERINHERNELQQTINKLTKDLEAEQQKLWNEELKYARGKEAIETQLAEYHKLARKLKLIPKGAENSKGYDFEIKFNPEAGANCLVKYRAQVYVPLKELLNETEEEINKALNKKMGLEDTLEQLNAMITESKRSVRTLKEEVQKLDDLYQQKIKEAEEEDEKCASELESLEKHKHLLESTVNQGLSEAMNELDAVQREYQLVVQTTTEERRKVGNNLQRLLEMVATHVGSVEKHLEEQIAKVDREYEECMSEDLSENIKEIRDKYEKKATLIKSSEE

## FLAG-Mad1 residues 1-120 (from UniProt Q9Y6D9 1-120) (domain or fragment)
[1]
  binding: no binding

## FLAG-Mad1 residues 1-240 (from UniProt Q9Y6D9 1-240) (domain or fragment)
[1]
  binding: binds

## FLAG-Mad1 residues 1-539 (from UniProt Q9Y6D9 1-539) (domain or fragment)
[1]
  binding: binds

## FLAG-Mad1 residues 121-240 (from UniProt Q9Y6D9 121-240) (domain or fragment)
[1]
  binding: binds

## FLAG-Mad1 residues 241-539 (from UniProt Q9Y6D9 241-539) (domain or fragment)
[1]
  binding: no binding

## FLAG-Mad1 residues 241-596 (from UniProt Q9Y6D9 241-596) (domain or fragment)
[1]
  binding: binds

## FLAG-Mad1 residues 540-718 (from UniProt Q9Y6D9 540-718) (domain or fragment)
[1]
  binding: binds

## FLAG-Mad1 residues 552-718 (lacking the MIM domain) (from UniProt Q9Y6D9 552-718) (domain or fragment)
[1]
  binding: binds

## FLAG-Mad1-N596 (N-terminal domain of Mad1, residues 1-596) (from UniProt Q9Y6D9 1-596) (domain or fragment)
[1]
  binding: binds

## outer kinetochore protein Hec1 (endogenous) (from UniProt O14777 1-642)
[2]
  binding: no binding

B1: FLAG-Mad1 C-terminal domain (CTD, residues 597-718) (domain or fragment, UniProt Q9Y6D9 597-718)
chain: SSKEVAELKKQVESAELKNQRLKEVFQTKIQEFRKACYTLTGYQIDITTENQYRLTSLYAEHPGDCLIFKATSPSGSKMQLLETEFSHTVGELIEVHLRRQDSIPAFLSSLTLELFSRQTVA
[1]
  binding: no binding

B2: full-length FLAG-Mad1 (protein, UniProt Q9Y6D9 1-718)
chain: MEDLGENTMVLSTLRSLNNFISQRVEGGSGLDISTSAPGSLQMQYQQSMQLEERAEQIRSKSHLIQVEREKMQMELSHKRARVELERAASTSARNYEREVDRNQELLTRIRQLQEREAGAEEKMQEQLERNRQCQQNLDAASKRLREKEDSLAQAGETINALKGRISELQWSVMDQEMRVKRLESEKQELQEQLDLQHKKCQEANQKIQELQASQEARADHEQQIKDLEQKLSLQEQDAAIVKNMKSELVRLPRLERELKQLREESAHLREMRETNGLLQEELEGLQRKLGRQEKMQETLVGLELENERLLAKLQSWERLDQTMGLSIRTPEDLSRFVVELQQRELALKDKNSAVTSSARGLEKARQQLQEELRQVSGQLLEERKKRETHEALARRLQKRVLLLTKERDGMRAILGSYDSELTPAEYSPQLTRRMREAEDMVQKVHSHSAEMEAQLSQALEELGGQKQRADMLEMELKMLKSQSSSAEQSFLFSREEADTLRLKVEELEGERSRLEEEKRMLEAQLERRALQGDYDQSRTKVLHMSLNPTSVARQRLREDHSQLQAECERLRGLLRAMERGGTVPADLEAAAASLPSSKEVAELKKQVESAELKNQRLKEVFQTKIQEFRKACYTLTGYQIDITTENQYRLTSLYAEHPGDCLIFKATSPSGSKMQLLETEFSHTVGELIEVHLRRQDSIPAFLSSLTLELFSRQTVA
[1]
  binding: binds

B3: Mad1 (endogenous) (protein, UniProt Q9Y6D9 1-718)
chain: B2 chain
[3]
  binding: binds

From publication doi:10.1101/2020.05.20.106567
